Data taken from ChEMBL document CHEMBL1909046, “DrugMatrix in vitro pharmacology data”.

By UniProt entry, the sequences of proteins in these tests, tags left out. Where a name states a change or a piece, a line headed by the entry shows the natural chain unless it says otherwise.
UniProt P28335: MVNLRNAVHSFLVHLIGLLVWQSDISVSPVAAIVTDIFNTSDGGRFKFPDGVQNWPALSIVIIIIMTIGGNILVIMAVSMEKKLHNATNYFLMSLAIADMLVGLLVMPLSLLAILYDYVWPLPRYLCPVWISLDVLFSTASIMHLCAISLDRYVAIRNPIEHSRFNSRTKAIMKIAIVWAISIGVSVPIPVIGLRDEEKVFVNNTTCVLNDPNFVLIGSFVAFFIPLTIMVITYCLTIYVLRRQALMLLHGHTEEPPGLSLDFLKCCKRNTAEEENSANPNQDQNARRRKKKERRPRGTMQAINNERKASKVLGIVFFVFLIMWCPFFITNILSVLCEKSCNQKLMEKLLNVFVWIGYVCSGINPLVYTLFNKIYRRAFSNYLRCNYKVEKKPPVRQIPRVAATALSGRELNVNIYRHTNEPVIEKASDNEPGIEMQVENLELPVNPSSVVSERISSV
UniProt P05177, whole entry: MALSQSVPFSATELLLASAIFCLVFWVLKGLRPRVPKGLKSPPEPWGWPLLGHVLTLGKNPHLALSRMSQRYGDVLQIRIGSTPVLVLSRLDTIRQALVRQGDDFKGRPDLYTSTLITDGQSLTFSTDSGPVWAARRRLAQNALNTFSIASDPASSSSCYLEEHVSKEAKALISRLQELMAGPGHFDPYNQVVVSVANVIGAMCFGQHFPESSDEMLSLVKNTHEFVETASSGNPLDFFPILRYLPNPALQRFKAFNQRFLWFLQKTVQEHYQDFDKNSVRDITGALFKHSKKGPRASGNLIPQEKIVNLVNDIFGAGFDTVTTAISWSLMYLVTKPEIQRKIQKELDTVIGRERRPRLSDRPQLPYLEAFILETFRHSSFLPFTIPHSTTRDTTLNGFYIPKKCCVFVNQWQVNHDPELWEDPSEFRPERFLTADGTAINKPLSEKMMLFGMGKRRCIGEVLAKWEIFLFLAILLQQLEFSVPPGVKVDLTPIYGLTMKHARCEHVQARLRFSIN
UniProt P33261, whole entry: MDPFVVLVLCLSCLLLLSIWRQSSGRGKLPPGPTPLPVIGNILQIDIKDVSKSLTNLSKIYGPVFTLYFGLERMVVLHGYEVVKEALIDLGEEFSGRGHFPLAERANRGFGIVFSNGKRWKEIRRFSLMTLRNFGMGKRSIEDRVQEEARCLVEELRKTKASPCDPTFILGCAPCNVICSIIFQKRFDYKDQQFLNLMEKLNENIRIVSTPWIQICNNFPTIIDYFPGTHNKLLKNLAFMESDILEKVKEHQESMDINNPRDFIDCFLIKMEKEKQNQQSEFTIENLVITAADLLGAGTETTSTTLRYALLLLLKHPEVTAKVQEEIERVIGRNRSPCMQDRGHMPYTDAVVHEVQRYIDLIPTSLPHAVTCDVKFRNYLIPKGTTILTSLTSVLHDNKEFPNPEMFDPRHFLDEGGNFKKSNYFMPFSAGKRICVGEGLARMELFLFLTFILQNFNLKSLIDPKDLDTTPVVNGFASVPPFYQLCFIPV
UniProt P05181: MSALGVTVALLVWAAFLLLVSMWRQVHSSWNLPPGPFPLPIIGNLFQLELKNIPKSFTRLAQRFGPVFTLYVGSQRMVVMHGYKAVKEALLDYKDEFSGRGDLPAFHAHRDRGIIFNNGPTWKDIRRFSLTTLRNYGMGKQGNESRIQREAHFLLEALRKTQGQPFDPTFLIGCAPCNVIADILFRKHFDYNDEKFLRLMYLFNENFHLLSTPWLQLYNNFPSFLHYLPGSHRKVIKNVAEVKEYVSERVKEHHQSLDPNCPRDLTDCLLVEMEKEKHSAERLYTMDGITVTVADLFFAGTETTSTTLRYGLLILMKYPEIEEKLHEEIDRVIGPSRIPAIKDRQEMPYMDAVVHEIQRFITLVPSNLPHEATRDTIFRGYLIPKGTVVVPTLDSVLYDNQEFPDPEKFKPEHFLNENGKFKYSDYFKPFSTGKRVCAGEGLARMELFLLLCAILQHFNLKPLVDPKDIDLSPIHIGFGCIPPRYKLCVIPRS
UniProt P08684, whole entry: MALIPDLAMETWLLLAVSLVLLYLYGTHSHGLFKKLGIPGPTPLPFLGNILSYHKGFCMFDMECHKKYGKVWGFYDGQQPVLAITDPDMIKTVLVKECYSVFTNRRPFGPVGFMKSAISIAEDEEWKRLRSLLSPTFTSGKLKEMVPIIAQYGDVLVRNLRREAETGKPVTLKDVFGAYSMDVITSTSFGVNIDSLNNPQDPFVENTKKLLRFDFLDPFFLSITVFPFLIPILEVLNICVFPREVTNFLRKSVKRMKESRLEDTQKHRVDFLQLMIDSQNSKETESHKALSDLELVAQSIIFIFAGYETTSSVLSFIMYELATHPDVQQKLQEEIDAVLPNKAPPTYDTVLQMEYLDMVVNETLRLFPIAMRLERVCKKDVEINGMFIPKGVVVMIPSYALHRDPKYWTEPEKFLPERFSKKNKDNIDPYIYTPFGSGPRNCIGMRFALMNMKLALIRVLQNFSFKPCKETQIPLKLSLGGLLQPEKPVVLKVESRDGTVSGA

What was measured:
[1] = molecular target: 5-hydroxytryptamine receptor 2C (Homo sapiens, UniProt P28335); test: DRUGMATRIX: Serotonin (5-Hydroxytryptamine) 5-HT2C radioligand binding (ligand: [3H] Mesulergine); type: cell membranes, CHO-K1, Membrane; details: cho-k1; Not Active = under 50% inhibition at 10 µM
Cytochrome P450 1A2 = Cytochrome P450 1A2 (Homo sapiens, UniProt P05177); details: bti-tn-5b1-4; note: in other assays of this panel Not Active means under 50% inhibition at 10 µM
Cytochrome P450 2C19 = Cytochrome P450 2C19 (Homo sapiens, UniProt P33261); details: bti-tn-5b1-4; note: in other assays of this panel Not Active means under 50% inhibition at 10 µM
Cytochrome P450 2E1 = Cytochrome P450 2E1 (Homo sapiens, UniProt P05181); details: bti-tn-5b1-4; note: in other assays of this panel Not Active means under 50% inhibition at 10 µM
Cytochrome P450 3A4 = Cytochrome P450 3A4 (Homo sapiens, UniProt P08684); details: bti-tn-5b1-4; note: in other assays of this panel Not Active means under 50% inhibition at 10 µM

CCC(C)C(C(=O)OCC[N+](C)(CC)CC)c1ccccc1.[Br-] (centres undefined) [VALETHAMATE BROMIDE]
Not Active: IC50 [1] | IC50 (Cytochrome P450 1A2) | Ki (Cytochrome P450 1A2) | IC50 (Cytochrome P450 2C19) | Ki (Cytochrome P450 2C19) | IC50 (Cytochrome P450 2E1) | Ki (Cytochrome P450 2E1) | IC50 (Cytochrome P450 3A4) | Ki (Cytochrome P450 3A4)
